Several values for one entry are separate records, joined by “and”; a condition that tells them apart may be missing. Equal entries are not always repeated. Structures can show the parent of a compound that is named as a salt. ± gives the standard deviation of the averaged measurements. This is one part of the list. Repeats are few or missing, and single values can be far off.
System: RAW 264.7
Assay: HMGB1-induced TNF-alpha production relative to HMGB1-stimulated control; higher = more TNF-alpha secretion (less inhibition)
Conditions: stimulus: HMGB1 5 ug/ml, 18 h
[1] = compound concentration: 1 ug/ml

| Compound | HMGB1-induced TNF-alpha production [1] [%] | HMGB1-induced TNF-alpha production (compound concentration: 3 uM) |
| --- | --- | --- |
| O=C(O)C(=O)Cc1ccccc1 [Phenylpyruvic acid] | 67.4 | – |
| O=C1c2cccc(O)c2C(=O)c2c(O)cccc21 | – | 78.1% |
| O=c1cc(N2CCOCC2)oc2c(-c3ccccc3)cccc12 [LY-294,002 hydrochloride] | – | 89% |
| CCOC(N)=O | – | 85.3 ± 6% |
| O=C(O)CCC(=O)c1ccc(-c2ccccc2)cc1 [Fenbufen] | – | 87.72 ± 0.5% |
| O=C(O)CCC(=O)c1ccc(-c2ccccc2)cc1 | – | 64.7% |
| CCC=CCC1C(=O)CCC1CC(=O)O (racemic) [(+/-)-Jasmonic acid] | 76.3 | – |
| CCN1CCCC1CNC(=O)c1cc(S(N)(=O)=O)ccc1OC (single isomer, unassigned; (-)) [(-)-Sulpiride] | – | 112% |
| CN1CCN2c3ccccc3Cc3ccccc3C2C1 (stereo not drawn) | – | 86.6% |
| CN1CCN2c3ccccc3Cc3ccccc3C2C1 (stereo not drawn) [Mianserin] | – | 111% |
| CN1CCN2c3ccccc3Cc3ccccc3C2C1 (stereo not drawn) [Mianserine hydrochloride] | – | 71.3% |
| CN1CCN2c3ccccc3Cc3ccccc3C2C1 (stereo not drawn) [Mianserin hydrochloride] | – | 103% |
| N[C@@H](Cc1ccc(O)c(O)c1)C(=O)O [Levodopa] | – | 101 ± 40% |
| N[C@@H](Cc1ccc(O)c(O)c1)C(=O)O | – | 96.3% |
| N[C@@H](Cc1ccc(O)c(O)c1)C(=O)O [L-3,4-Dihydroxyphenylalanine] | – | 92.5% |
| CCCCc1ncc(/C=C(\Cc2cccs2)C(=O)O)n1Cc1ccc(C(=O)O)cc1 [Eprosartan] | – | 113% |
| O=C(NC(Cc1cc(=O)[nH]c2ccccc12)C(=O)O)c1ccc(Cl)cc1 (stereo not drawn) | – | 84.1% |
| O=C(NC(Cc1cc(=O)[nH]c2ccccc12)C(=O)O)c1ccc(Cl)cc1 (stereo not drawn) [Rebamipide] | – | 84.3 ± 3.2% |
| CCN1C(=O)C=CC1=O [N-Ethylmaleimide] | – | 78.6% |
| CC(C)(C)NC[C@H](O)COc1cccc2c1CCCC2=O [(-) -Levobunolol hydrochloride] | – | 98.5% |
| C[N+](C)(C)CCOC(N)=O [Carbamylcholine] | – | 108% |

| Compound | HMGB1-induced TNF-alpha production [1] [%] | HMGB1-induced TNF-alpha production (compound concentration: 3 uM) |
| --- | --- | --- |
| C[N+](C)(C)CCOC(N)=O | – | 103% |
| C[N+](C)(C)CCOC(N)=O [Carbachol] | – | 85.2 ± 6.6% |
| Nc1ncn(C2OC(CO)C(O)C2O)c(=O)n1 (stereo not drawn) [Azacytidine-5] | – | 260% |
| O=C(O)c1coc2ccc(F)cc2c1=O [6-Fluorochromone-3-carboxylic acid] | 68 | – |
| CCOC(=O)C1=C(C)NC(C)=C(C(=O)OC)C1c1cccc(Cl)c1Cl (stereo not drawn) [Felodipine] | – | 87.3 ± 21% |
| C[C@H](CCC(=O)O)[C@H]1CC[C@H]2[C@@H]3C(=O)C[C@@H]4CC(=O)CC[C@]4(C)[C@H]3CC(=O)[C@]12C [Dehydrocholic acid] | 69.3 | 59.5% |
| C[C@H](CCC(=O)O)[C@H]1CC[C@H]2[C@@H]3C(=O)C[C@@H]4CC(=O)CC[C@]4(C)[C@H]3CC(=O)[C@]12C | – | 80.4% and 95.4% |
| CO[C@H]1C[C@H](O[C@@H]2/C(C)=C/C[C@@H]3C[C@@H](C[C@]4(CC[C@H](C)[C@@H](C5CCCCC5)O4)O3)OC(=O)[C@@H]3C=C(C)/C(=N/O)[C@H]4OC/C(=C\C=C\[C@@H]2C)[C@]43O)O[C@@H](C)[C@@H]1O | – | 68.9% |
| Cc1nc2sccn2c(=O)c1CCN1CCC(=C(c2ccc(F)cc2)c2ccc(F)cc2)CC1 [Ritanserin] | – | 87.1% |
| Cc1nc2sccn2c(=O)c1CCN1CCC(=C(c2ccc(F)cc2)c2ccc(F)cc2)CC1 | – | 65.4% |
| O=C1c2c(O)ccc(O)c2C(=O)c2c(NCCNCCO)ccc(NCCNCCO)c21 | – | 18.7 ± 14% |
| O=C1c2c(O)ccc(O)c2C(=O)c2c(NCCNCCO)ccc(NCCNCCO)c21 [Mitoxantrone] | – | 50.1 ± 4% |
| O=C1c2c(O)ccc(O)c2C(=O)c2c(NCCNCCO)ccc(NCCNCCO)c21 [Mitoxantrone dihydrochloride] | – | 22.2% |
| CN(C(=O)CCCOc1ccc2[nH]c(=O)ccc2c1)C1CCCCC1 [Cilostamide] | – | 88.3 ± 13% |
| NNC(=O)c1ccncc1 | – | 102% |
| NNC(=O)c1ccncc1 [Isoniazid] | – | 89 ± 32% |
| CCC(=O)OCC(=O)[C@@]1(OC(=O)CC)[C@@H](C)C[C@H]2[C@@H]3CCC4=CC(=O)C=C[C@]4(C)[C@@]3(F)[C@@H](O)C[C@@]21C | – | 42.6% |
| CC1(C)O[C@@H]2C[C@H]3[C@@H]4C[C@H](F)C5=CC(=O)CC[C@]5(C)[C@H]4[C@@H](O)C[C@]3(C)[C@]2(C(=O)CO)O1 | – | 33.5% |
| CC1(C)O[C@@H]2C[C@H]3[C@@H]4C[C@H](F)C5=CC(=O)CC[C@]5(C)[C@H]4[C@@H](O)C[C@]3(C)[C@]2(C(=O)CO)O1 [Flurandrenolide] | – | 35.7% |
| O=C(O)c1cccnc1 | – | 76.9% |
| O=C(O)c1cccnc1 [Niacin] | – | 95.6% |

Single records, from the list above. Order of values: HMGB1-induced TNF-alpha production [1] [%]	HMGB1-induced TNF-alpha production (compound concentration: 3 uM)
O=C1c2c(O)ccc(O)c2C(=O)c2c(NCCNCCO)ccc(NCCNCCO)c21 as listed: –	18.7 ± 14%
Cc1nc2sccn2c(=O)c1CCN1CCC(=C(c2ccc(F)cc2)c2ccc(F)cc2)CC1 as listed: –	65.4%

— the supplement of paper PMC3682954
